From patent US20240299347A1, “METHODS AND COMPOSITIONS TO TREAT HUNTINGTON'S DISEASE BY TARGETING ALOX5- MEDIATED FERROPTOSIS” (The Trustees of Columbia University in the City of New York, priority 2023, published 2024)
For at least one compound, name, drawing or mass did not settle the structure.

Key:
[1] = system: HTTQ94 Tet-on HT-22 cells; test: Cell death assay, HTTQ94 Tet-on HT-22 cells treated with erastin; type: cell-based, mouse; settings: doxycycline 0.5 μg/ml 4 h; for effect of inhibitor on HTTQ94-mediated cell death (ferroptosis) upon erastin: then Erastin 1 μM 12 h, Ferr-1 2 μM, ROSI 10 μM, TRO 10 μM
[2] = system: HTTQ94 Tet-on SK-N-BE(2)C cells; test: Cell death assay, HTTQ94 Tet-on SK-N-BE(2)C cells treated with erastin; type: cell-based, human; settings: for effect of inhibitor on HTTQ94-mediated ferroptosis upon erastin: then Erastin 40 μM 32 h, ROSI 10 μM, TRO 10 μM

Structure (SMILES) | cell death induced by inducer combined with HTTQ94 induction ([1]; Erastin 1 μM 12 h) | ferroptosis induced by inducer upon HTTQ94 induction ([2]; doxycycline 0.5 μg/ml 16 h, Erastin 40 μM 32 h) | sensitivity of native cells to inducer ([2]; native SK-N-BE(2)C cells, no HTTQ94 induction) | effect of inhibitor on HTTQ94-mediated cell death (ferroptosis) upon erastin [1] | effect of inhibitor on HTTQ94-mediated ferroptosis upon erastin ([2]; doxycycline 0.5 μg/ml 16 h)
CCOc1ccccc1-n1c(C(C)N2CCN(C(=O)COc3ccc(Cl)cc3)CC2)nc2ccccc2c1=O (stereo not shown) [erastin] | high levels of cell death | high levels of ferroptosis | highly resistant | – | –
CN(CCOc1ccc(CC2SC(=O)NC2=O)cc1)c1ccccn1 (stereo not shown) [rosiglitazone] | – | – | – | prevented | prevented
Cc1c(C)c2c(c(C)c1O)CCC(C)(COc1ccc(CC3SC(=O)NC3=O)cc1)O2 (stereo not shown) [troglitazone] | – | – | – | prevented | prevented
